Data on 15 targets can be found in the supplement of paper PMC12067093, “Discovery and optimisation of a covalent ligand for TRIM25 and its application to targeted protein ubiquitination” (Chemical Science, 2025).

The chains behind the UniProt entries cited, without tags or fusion partners. Where a name states a change or a piece, a line headed by the entry shows the natural chain unless it says otherwise.
UniProt Q7Z2W4: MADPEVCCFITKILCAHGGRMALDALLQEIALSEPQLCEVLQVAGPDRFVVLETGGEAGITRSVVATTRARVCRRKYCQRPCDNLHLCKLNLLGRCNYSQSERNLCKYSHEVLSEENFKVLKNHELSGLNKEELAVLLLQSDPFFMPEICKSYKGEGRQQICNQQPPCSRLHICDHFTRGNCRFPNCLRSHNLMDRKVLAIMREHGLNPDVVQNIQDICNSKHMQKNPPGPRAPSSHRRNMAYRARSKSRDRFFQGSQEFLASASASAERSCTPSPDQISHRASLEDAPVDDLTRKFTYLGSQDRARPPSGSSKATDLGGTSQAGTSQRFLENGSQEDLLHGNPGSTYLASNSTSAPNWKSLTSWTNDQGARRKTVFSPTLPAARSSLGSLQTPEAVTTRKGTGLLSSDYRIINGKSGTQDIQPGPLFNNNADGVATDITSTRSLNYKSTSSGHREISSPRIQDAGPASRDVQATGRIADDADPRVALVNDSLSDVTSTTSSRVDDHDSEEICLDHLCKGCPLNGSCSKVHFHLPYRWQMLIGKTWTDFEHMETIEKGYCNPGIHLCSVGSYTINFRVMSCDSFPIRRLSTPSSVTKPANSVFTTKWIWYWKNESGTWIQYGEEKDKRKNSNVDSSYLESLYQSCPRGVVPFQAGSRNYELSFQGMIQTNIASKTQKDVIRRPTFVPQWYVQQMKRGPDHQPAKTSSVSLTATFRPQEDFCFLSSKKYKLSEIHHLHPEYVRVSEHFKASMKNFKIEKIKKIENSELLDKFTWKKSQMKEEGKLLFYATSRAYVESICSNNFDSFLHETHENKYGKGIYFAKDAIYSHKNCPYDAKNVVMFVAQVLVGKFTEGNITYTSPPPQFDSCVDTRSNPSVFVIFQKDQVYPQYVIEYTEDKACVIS
UniProt P13010: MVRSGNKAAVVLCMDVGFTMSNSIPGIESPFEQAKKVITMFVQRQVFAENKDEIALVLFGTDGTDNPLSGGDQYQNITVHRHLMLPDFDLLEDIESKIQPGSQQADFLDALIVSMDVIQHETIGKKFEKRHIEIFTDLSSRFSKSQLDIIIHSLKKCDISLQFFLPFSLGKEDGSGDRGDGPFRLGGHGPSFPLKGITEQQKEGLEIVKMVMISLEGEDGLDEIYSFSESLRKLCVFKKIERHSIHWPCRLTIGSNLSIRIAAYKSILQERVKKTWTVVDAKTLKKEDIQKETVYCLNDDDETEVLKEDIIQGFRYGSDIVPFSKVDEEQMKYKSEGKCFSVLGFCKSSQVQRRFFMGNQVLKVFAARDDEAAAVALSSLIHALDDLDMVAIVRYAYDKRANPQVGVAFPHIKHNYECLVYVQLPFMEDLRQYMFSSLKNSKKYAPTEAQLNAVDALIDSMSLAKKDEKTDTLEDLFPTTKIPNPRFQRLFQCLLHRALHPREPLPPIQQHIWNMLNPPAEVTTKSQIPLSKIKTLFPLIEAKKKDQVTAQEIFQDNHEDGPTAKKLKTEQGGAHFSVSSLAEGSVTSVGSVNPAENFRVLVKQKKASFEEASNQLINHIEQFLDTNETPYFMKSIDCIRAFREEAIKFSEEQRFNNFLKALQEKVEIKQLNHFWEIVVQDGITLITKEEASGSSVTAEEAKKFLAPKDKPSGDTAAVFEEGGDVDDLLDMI
UniProt Q8TCF1: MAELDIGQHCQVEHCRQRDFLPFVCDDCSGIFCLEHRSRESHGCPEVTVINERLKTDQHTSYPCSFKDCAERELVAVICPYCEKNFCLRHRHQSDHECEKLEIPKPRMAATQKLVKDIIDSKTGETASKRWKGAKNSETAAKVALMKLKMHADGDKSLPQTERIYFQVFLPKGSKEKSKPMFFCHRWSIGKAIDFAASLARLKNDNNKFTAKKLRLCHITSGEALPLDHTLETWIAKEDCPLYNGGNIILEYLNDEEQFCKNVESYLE
UniProt Q9NUD5: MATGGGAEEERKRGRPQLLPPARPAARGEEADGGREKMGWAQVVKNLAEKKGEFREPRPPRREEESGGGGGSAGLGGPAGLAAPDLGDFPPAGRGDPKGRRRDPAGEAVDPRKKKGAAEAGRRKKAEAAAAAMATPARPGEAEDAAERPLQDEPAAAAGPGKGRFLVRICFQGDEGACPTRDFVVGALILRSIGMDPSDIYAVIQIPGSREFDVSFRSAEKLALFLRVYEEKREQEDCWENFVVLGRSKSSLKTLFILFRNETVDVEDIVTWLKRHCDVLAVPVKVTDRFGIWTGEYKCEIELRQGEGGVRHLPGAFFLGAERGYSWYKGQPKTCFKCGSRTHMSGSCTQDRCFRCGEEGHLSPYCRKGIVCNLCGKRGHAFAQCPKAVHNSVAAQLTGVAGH
UniProt Q8NCN2: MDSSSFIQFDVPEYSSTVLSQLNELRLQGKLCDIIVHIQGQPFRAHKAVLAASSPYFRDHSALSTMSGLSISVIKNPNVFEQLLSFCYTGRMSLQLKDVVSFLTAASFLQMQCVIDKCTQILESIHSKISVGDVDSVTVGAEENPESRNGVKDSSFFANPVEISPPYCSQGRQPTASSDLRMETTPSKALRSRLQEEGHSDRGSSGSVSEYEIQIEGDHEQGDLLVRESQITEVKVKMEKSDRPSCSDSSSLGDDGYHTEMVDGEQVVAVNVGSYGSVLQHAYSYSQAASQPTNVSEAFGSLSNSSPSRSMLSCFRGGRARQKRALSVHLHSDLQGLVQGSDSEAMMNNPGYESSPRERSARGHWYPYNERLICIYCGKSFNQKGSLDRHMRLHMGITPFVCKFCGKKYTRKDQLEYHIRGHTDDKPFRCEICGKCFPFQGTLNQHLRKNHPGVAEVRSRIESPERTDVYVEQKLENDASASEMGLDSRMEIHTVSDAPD
UniProt P27348: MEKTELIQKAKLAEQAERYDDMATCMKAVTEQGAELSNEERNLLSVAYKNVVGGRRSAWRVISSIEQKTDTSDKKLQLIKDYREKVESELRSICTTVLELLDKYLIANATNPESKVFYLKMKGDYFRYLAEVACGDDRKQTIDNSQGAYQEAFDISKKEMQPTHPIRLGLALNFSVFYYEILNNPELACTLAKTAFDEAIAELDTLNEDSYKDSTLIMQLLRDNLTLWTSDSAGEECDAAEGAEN
UniProt A2A288: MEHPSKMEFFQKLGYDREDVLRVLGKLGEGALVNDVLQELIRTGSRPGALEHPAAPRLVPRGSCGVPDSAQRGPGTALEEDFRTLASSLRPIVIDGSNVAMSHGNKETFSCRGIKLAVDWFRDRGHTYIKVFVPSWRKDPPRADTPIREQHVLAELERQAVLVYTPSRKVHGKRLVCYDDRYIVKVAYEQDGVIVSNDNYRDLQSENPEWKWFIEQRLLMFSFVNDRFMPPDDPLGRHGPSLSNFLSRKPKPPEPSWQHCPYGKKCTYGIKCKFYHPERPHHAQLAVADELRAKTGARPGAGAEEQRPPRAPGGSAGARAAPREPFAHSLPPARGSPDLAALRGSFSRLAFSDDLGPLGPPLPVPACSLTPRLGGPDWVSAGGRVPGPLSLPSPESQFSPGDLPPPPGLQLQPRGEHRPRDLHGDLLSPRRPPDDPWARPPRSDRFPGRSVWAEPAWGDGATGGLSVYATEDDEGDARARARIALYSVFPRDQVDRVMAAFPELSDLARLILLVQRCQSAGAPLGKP
UniProt Q8N4Q0: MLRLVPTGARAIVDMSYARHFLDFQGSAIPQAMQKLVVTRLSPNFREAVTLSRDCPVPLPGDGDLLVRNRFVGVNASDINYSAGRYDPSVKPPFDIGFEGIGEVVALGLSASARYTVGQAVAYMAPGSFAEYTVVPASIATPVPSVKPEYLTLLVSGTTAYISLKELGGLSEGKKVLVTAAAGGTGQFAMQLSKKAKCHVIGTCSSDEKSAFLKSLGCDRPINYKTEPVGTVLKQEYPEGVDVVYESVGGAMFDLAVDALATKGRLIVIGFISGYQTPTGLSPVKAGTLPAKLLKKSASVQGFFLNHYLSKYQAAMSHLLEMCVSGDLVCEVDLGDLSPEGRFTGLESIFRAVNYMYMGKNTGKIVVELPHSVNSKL
UniProt Q8IWR0: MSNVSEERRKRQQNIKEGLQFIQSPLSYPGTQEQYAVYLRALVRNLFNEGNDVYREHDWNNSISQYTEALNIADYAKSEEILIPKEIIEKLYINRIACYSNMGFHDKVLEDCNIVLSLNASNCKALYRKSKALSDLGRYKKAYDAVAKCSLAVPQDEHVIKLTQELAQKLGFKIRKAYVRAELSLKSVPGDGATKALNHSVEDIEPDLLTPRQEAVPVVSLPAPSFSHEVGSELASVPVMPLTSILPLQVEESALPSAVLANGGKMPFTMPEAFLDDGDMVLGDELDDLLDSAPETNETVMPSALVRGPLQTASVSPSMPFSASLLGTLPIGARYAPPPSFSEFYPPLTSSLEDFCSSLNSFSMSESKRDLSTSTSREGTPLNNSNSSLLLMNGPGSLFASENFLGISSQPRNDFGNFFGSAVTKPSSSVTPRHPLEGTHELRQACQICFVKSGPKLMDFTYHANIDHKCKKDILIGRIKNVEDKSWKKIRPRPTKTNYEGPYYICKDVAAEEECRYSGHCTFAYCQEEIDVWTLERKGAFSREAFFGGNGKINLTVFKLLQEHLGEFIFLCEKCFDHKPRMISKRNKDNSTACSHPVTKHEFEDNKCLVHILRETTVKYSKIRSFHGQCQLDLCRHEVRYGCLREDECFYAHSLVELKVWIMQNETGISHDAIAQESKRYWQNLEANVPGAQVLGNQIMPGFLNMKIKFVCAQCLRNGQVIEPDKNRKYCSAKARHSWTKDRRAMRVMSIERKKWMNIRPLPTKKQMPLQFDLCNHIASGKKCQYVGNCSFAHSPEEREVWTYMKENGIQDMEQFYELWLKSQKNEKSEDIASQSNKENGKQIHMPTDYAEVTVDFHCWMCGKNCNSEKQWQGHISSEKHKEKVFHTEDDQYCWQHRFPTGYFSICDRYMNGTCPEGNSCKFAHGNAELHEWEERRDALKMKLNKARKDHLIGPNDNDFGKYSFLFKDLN
UniProt O14980, whole entry, looked up: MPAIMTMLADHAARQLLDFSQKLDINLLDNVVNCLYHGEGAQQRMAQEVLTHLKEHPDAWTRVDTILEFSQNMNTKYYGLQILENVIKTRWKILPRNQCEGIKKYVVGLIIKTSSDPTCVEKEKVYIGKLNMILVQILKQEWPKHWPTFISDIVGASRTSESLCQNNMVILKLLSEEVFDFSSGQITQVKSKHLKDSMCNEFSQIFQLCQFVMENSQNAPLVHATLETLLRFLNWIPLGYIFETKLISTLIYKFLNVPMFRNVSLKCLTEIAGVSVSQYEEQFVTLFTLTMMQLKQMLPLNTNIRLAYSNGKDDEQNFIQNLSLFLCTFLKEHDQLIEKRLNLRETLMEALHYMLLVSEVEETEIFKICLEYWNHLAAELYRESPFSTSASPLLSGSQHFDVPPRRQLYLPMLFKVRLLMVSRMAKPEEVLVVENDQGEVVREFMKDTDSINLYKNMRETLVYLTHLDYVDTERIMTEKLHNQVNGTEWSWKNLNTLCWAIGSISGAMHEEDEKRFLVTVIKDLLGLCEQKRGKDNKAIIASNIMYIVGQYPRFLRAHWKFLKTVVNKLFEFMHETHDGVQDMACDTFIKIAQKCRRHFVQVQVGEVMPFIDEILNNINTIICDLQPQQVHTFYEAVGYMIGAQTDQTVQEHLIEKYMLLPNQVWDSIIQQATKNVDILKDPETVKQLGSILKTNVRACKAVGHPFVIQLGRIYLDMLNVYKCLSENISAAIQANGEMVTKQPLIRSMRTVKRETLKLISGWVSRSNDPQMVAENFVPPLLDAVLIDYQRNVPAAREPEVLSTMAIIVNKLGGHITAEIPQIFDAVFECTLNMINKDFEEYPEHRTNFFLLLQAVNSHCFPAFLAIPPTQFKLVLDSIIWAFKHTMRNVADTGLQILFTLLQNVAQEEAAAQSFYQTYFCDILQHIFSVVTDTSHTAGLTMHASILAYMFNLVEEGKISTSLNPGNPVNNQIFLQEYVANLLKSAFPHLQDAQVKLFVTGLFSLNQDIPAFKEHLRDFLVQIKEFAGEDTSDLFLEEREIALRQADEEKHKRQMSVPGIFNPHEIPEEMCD
UniProt O43829: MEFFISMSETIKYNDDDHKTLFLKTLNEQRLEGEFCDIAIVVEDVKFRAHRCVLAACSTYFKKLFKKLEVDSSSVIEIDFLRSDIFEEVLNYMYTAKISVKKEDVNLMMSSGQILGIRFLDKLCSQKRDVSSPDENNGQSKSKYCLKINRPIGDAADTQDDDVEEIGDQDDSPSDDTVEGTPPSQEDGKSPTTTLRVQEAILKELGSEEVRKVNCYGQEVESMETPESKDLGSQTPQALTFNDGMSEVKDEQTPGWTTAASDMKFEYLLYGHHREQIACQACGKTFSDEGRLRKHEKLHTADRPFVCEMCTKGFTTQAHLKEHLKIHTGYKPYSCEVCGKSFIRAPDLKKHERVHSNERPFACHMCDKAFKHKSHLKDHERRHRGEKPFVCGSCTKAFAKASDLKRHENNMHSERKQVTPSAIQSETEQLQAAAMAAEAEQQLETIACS

Some of the results follow.

Compound in the experiment: CC1Cc2ccccc2N1C(=O)C1CCCN(C1)C(=O)CCl (mixture of isomers) [TRIM25 ligand 11 (diastereomer mixture)]
The experiment can be described thus: probe-labelled cysteine peptide fold change vs DMSO (competition) (log2 fold change); higher = less target engagement (more negative = stronger competition). Conditions: THP-1, incubation time: 4 h.
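Also: competitive chemoproteomic profiling in live THP-1 cells with an iodoacetamide desthiobiotin (IA-DTB) probe, comparing probe-labelled peptide intensities in compound-treated cells against DMSO-treated controls.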

In the case of “ZC3HAV1_Q7Z2W4_798_AYVESICSNNFDSFLHETHENK (UniProt Q7Z2W4)”, the “probe-labelled cysteine peptide fold change” value came out at 0.0747 (10 µM) and 0.0853 (50 µM).

In the case of “XRCC5_P13010_249_HSIHWPCR (UniProt P13010)”, the “probe-labelled cysteine peptide fold change” value (10 µM) came out at 0.141 and the “probe-labelled cysteine peptide fold change” value (50 µM) stood at 0.0697.

In the case of “ZFAND1_Q8TCF1_28_QRDFLPFVCDDCSGIFCLEHR (UniProt Q8TCF1)”, the “probe-labelled cysteine peptide fold change” value (10 µM) is -0.0983 and the “probe-labelled cysteine peptide fold change” value (50 µM) is -0.028.

Regarding “ZCCHC3_Q9NUD5_372_KGIVCNLCGK (UniProt Q9NUD5)”, the “probe-labelled cysteine peptide fold change” value was -0.0495 (10 µM) and -0.0543 (50 µM).

Consider “ZBTB34_Q8NCN2_32_LCDIIVHIQGQPFR (UniProt Q8NCN2)”, for which the “probe-labelled cysteine peptide fold change” value runs as follows: (10 µM) 0.0544; (50 µM) 0.302.

In the case of “ZDHHC12_Q96GR4_102_YCLVLQPLR (UniProt Q96GR4)”, the “probe-labelled cysteine peptide fold change” value was -0.0174 (10 µM) and -0.0218 (50 µM).

For the target “YWHAQ_P27348_25_LAEQAERYDDMATCMK (UniProt P27348)”, the “probe-labelled cysteine peptide fold change” value (10 µM) is -0.53 and the “probe-labelled cysteine peptide fold change” value (50 µM) was -0.458.

In the case of “ZC3H12D_A2A288_64_GSCGVPDSAQR (UniProt A2A288)”, the “probe-labelled cysteine peptide fold change” value by setting is: (10 µM) -0.0296; (50 µM) -0.256.

For the target “ZADH2_Q8N4Q0_55_DCPVPLPGDGDLLVR (UniProt Q8N4Q0)”, the “probe-labelled cysteine peptide fold change” value (10 µM) worked out at 0.0399 and the “probe-labelled cysteine peptide fold change” value (50 µM) is -0.177.

Turning to “ZFAND1_Q8TCF1_44_ESHGCPEVTVINER (UniProt Q8TCF1)”, the “probe-labelled cysteine peptide fold change” value reads like this: (10 µM) -0.0486; (50 µM) 0.0179.

With “YARS2_Q9Y2Z4_413_EAPFSEFFLDPGTSVLDTCRK (UniProt Q9Y2Z4)”, the “probe-labelled cysteine peptide fold change” value runs as follows: (10 µM) -0.171; (50 µM) 0.00272.

As to “ZC3H7A_Q8IWR0_149_CSLAVPQDEHVIK (UniProt Q8IWR0)”, the “probe-labelled cysteine peptide fold change” value is 0.0297 (10 µM) and -0.053 (50 µM).

Turning to “ZC3HC1_Q86WB0_406_LCSSSSSDTSSR (UniProt Q86WB0)”, the “probe-labelled cysteine peptide fold change” value runs as follows: (10 µM) -0.0222; (50 µM) -0.106.

Take XPO1_O14980_99_NQCEGIK (UniProt O14980): the “probe-labelled cysteine peptide fold change” value was determined as 0.0271 (10 µM) and 0.0716 (50 µM).

“ZBTB14_O43829_52_CVLAACSTYFK (UniProt O43829)”: the “probe-labelled cysteine peptide fold change” value is, setting by setting: (10 µM) 0.0232; (50 µM) 0.309.
